According to the supplement of paper PMC10331698:
± gives the standard deviation of the averaged measurements. Most values lie at the level of the controls, where differences are scatter.

Assays:
Assay in all cases: level (log10 ratio to DMSO vehicle control); higher = higher biomarker level / cell amount than vehicle control
[1] = compound: CCOC(=O)CC(=O)C(F)(F)C(F)(F)F [Ethyl pentafluoropropionyl acetate]; details: 2200 nM; in DMSO
Procedure: (§1)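 BioMAP Diversity Plus panel of 12 human primary cell co-culture systems (3C, 4H, LPS, SAg, BT, BF4T, BE3C, CASM3C, HDF3CGF, KF3CT, MyoF, Mphg). Compounds were added 1 h before stimulation and left for 24 h (MyoF 48 h; BT 72 h for soluble read-outs or 6 d for IgG). Biomarkers were read by ELISA, cytotoxicity by SRB, PBMC viability and proliferation by Alamar Blue. Each well value was divided by the mean of 8 DMSO control wells on the same plate and log10 transformed; duplicate blinded samples were tested at 4 concentrations.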

[2] = compound: O=C(CC(=O)C(F)(F)C(F)(F)C(F)(F)F)c1cccs1 [(Perfluorobutyryl)-2-thenoylmethane]; details: 2200 nM; in DMSO
Procedure: as §1

[3] = compound: FC(F)(F)C(F)(F)C(F)(F)C(F)(F)C(F)(F)C(F)(F)C(F)(F)C(F)(F)CCS [2-(Perfluorooctyl)ethanthiol]; details: in DMSO
Procedure: as §1

[4] = compound: O=C(O)C(F)(F)OC(F)(F)C(F)(F)OC(F)(F)C(F)(F)OC(F)(F)C(F)(F)C(F)(F)C(F)(F)F [Perfluoro-3,6,9-trioxatridecanoic acid]; details: 2200 nM; in DMSO
Procedure: as §1

Perfluorooctanamidine = compound: N=C(N)C(F)(F)C(F)(F)C(F)(F)C(F)(F)C(F)(F)C(F)(F)C(F)(F)F [Perfluorooctanamidine]; details: in DMSO
Procedure: as §1

Perfluorodecanoic acid = compound: O=C(O)C(F)(F)C(F)(F)C(F)(F)C(F)(F)C(F)(F)C(F)(F)C(F)(F)C(F)(F)C(F)(F)F [Perfluorodecanoic acid]; details: in DMSO
Procedure: as §1

[5] = compound: C=CC(=O)OCC(F)(F)C(F)(F)C(F)(F)C(F)(F)C(F)(F)C(F)(F)C(F)(F)C(F)F [1H,1H,9H-Perfluorononyl acrylate]; details: 2200 nM; in DMSO
Procedure: as §1

[6] = compound: OCC(F)(F)C(F)(F)C(F)(F)C(F)(F)C(F)(F)C(F)(F)C(F)(F)C(F)(F)CO [1H,1H,10H,10H-Perfluorodecane-1,10-diol]; details: 2200 nM; in DMSO
Procedure: as §1

[7] = compound: O=C(O)CCC(F)(C(F)(F)F)C(F)(F)F [4,4-bis(Trifluoromethyl)-4-fluoropropanoic acid]; details: 2200 nM; in DMSO
Procedure: as §1

Perfluorononanoic acid = compound: O=C(O)C(F)(F)C(F)(F)C(F)(F)C(F)(F)C(F)(F)C(F)(F)C(F)(F)C(F)(F)F [Perfluorononanoic acid]; details: 2200 nM; in DMSO
Procedure: as §1

Perfluorooctanoic acid = compound: O=C(O)C(F)(F)C(F)(F)C(F)(F)C(F)(F)C(F)(F)C(F)(F)C(F)(F)F [Perfluorooctanoic acid]; details: 2200 nM; in DMSO
Procedure: as §1

[8] = compound: O=C(O)C(F)(F)OC(F)(F)C(F)(F)OC(F)(F)F [Perfluoro-3,6-dioxaheptanoic acid]; details: 2200 nM; in DMSO
Procedure: as §1

[9] = compound: O=C(O)C(F)(F)C(F)(F)C(F)(F)C(F)(F)C(F)(F)C(F)(F)C(F)(F)F [Ammonium perfluorooctanoate]; details: 2200 nM; in DMSO
Procedure: as §1

[10] = compound: OCC(F)(F)OC(F)(F)C(F)(F)OC(F)(F)C(F)(F)OC(F)(F)CO [1H,1H,11H,11H-Perfluorotetraethylene glycol]; details: 2200 nM; in DMSO
Procedure: as §1

Test System | level (log10) [1] | level (log10) [2] | level (log10) ([3]; 740 nM) | level (log10) ([3]; 2200 nM) | level (log10) [4] | level (log10) (Perfluorooctanamidine; 2200 nM) | level (log10) (Perfluorooctanamidine; 6700 nM) | level (log10) (Perfluorooctanamidine; 20000 nM) | level (log10) (Perfluorooctanamidine; 60000 nM) | level (log10) (Perfluorodecanoic acid; 2200 nM) | level (log10) (Perfluorodecanoic acid; 6700 nM) | level (log10) (Perfluorodecanoic acid; 20000 nM) | level (log10) [5] | level (log10) [6] | level (log10) [7] | level (log10) (Perfluorononanoic acid) | level (log10) (Perfluorooctanoic acid) | level (log10) [8] | level (log10) [9] | level (log10) [10]
4H:VEGFR2 | 0.0115 ± 0.019 | 0.002 ± 0.11 | 0.014 ± 0.017 | -0.032 ± 0.0099 | -0.009 ± 0.027 | 0.0205 ± 0.039 | -0.0135 ± 0.023 | -0.023 ± 0.025 | 0.064 | 0.002 ± 0.0057 | -0.007 ± 0.017 | -0.01 ± 0.02 | 0.0295 ± 0.012 | 0.0185 ± 0.018 | 0.025 ± 0.042 | 0.0115 ± 0.012 | 0.0345 ± 0.0078 | 0.0235 ± 0.013 | 0.0105 ± 0.042 | 0.0335 ± 0.11
BF4T:Keratin 8/18 | -0.0085 ± 0.018 | -0.032 ± 0.021 | -0.055 ± 0.023 | -0.0235 ± 0.036 | 0.022 ± 0.02 | 0.012 ± 0.018 | -0.012 ± 0.0057 | -0.0165 ± 0.016 | 0.039 | 0.0275 ± 0.0021 | 0.011 ± 0.0028 | -0.335 ± 0.042 | 0.0015 ± 0.016 | 0.024 ± 0.024 | 0.0015 ± 0.046 | -0.0255 ± 0.028 | 0.012 ± 0.028 | -0.0125 ± 0.049 | 0.023 ± 0.0028 | 0.012 ± 0.0099
CASM3C:PAI-I | -0.0045 ± 0.023 | -0.0015 ± 0.005 | 0.0005 ± 0.013 | -0.0145 ± 0.023 | 0.002 ± 0.0099 | 0.0115 ± 0.0078 | 0.0055 ± 0.012 | 0.0015 ± 0.0064 | 0.022 | 0.0035 ± 0.0092 | 0.001 ± 0.0014 | -0.0015 ± 0.005 | -0.012 ± 0.0028 | -0.001 ± 0.0071 | 0.0025 ± 0.011 | 0.0035 ± 0.00071 | 0.004 ± 0.0057 | 0.0045 ± 0.0021 | -0.001 ± 0.0099 | 0.0045 ± 0.0078
BF4T:CD106/VCAM-1 | 0.0085 ± 0.03 | -0.028 ± 0.034 | 0.004 ± 0.038 | -0.0305 ± 0.011 | -0.0055 ± 0.018 | 0.0205 ± 0.036 | 0.0325 ± 0.0092 | 0.018 ± 0.052 | 0.021 | -0.0065 ± 0.042 | -0.026 ± 0.0085 | -0.311 ± 0.0042 | 0.009 ± 0.0014 | -0.0005 ± 0.053 | 0.0035 ± 0.0092 | -0.047 ± 0.025 | 0.0265 ± 0.054 | -0.0205 ± 0.059 | 0.011 ± 0.033 | 0.013 ± 0.041
SAg:PBMC Cytotoxicity | -0.0045 ± 0.054 | 0.001 ± 0.023 | 0.009 ± 0.0014 | -0.005 ± 0.024 | 0.0005 ± 0.011 | 0.0425 ± 0.057 | 0.011 ± 0.021 | 0.003 ± 0.016 | -0.263 | 0.0485 ± 0.0035 | 0.032 ± 0.0028 | 0.0625 ± 0.061 | -0.012 ± 0.025 | 0.0015 ± 0.015 | 0.004 ± 0.037 | 0.002 ± 0.044 | 0.01 ± 0.024 | 0.0135 ± 0.054 | 0.004 ± 0.062 | -0.0035 ± 0.073
CASM3C:Serum Amyloid A | 0.0275 ± 0.035 | 0.039 ± 0.017 | 0.0255 ± 0.026 | -0.0025 ± 0.019 | -0.015 ± 0.0014 | 0.0365 ± 0.046 | 0.001 ± 0.0014 | -0.0085 ± 0.018 | 0.053 | 0.019 ± 0.0042 | 0.035 ± 0.031 | 0.0345 ± 0.026 | -0.069 ± 0.025 | 0.0005 ± 0.0035 | 0.0275 ± 0.037 | 0.0045 ± 0.054 | 0.0085 ± 0.0064 | -0.0475 ± 0.011 | 0 ± 0.0099 | -0.0105 ± 0.0035
